# Some of these results come from one statement about several compounds together.
# The chains behind the UniProt entries cited, without tags or fusion partners. Where a name states a change or a piece, a line headed by the entry shows the natural chain unless it says otherwise.
# UniProt Q13131: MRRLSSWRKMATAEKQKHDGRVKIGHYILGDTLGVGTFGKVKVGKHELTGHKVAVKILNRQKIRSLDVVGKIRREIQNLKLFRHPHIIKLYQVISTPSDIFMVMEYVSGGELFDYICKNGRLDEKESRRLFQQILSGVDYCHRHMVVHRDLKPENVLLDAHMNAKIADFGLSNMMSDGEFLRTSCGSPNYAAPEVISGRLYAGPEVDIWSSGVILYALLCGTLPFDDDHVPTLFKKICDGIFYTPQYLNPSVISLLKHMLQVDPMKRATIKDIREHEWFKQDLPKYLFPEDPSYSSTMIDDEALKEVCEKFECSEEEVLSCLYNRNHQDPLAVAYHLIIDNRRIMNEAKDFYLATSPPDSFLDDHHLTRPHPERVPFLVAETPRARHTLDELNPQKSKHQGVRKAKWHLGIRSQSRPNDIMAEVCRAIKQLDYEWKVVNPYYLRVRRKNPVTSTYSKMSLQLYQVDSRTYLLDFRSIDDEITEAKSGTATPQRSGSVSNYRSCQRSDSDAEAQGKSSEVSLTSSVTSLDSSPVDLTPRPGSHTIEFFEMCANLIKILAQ
# UniProt Q9Y478: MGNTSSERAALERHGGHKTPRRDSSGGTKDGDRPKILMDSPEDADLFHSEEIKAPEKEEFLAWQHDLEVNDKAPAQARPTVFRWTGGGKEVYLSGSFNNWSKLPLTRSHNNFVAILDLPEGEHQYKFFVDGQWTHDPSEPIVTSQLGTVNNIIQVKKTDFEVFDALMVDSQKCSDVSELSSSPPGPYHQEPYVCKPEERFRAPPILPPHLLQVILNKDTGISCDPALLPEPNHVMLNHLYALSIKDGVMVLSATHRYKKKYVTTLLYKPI
# Biological target: recombinant human AMPK complex 1 (containing α1β1γ1) (Homo sapiens, UniProt Q13131+Q9Y478)
# Test: In vitro AMPK activation assay (AMPKSAMSF)
# Type: biochemical
# Conditions: recombinant human AMPK complex 1 (α1β1γ1)
# Description: AMPKSAMSF (In Vitro AMPK Activation Assay)
# The recombinant human AMPK complex 1 (containing α1β1γ1) was obtained from baculovirus expression system. Recombinant viruses were generated by cotransfection of AMPK/pBacPak9 clones with Baculogold baculovirus DNA (Pharmingen) in spodoptera frugiperda 21 cells according to the manufacturer's instructions. Each round of virus amplification was performed for 5 days in Grace's medium containing 10% serum. Virus that had been subjected to three rounds of amplification was used for all protein production procedures. To express the AMPK complex, sf21 cells were adapted to serum free medium (SF900 II, Invitrogen) by sequential dilution from serum containing stocks into SF900 II medium and maintained in shaker flasks at 90 rpm at 27° C. The recombinant AMPK enzyme complex was produced by triple infection, one recombinant virus for each of the subunits, in sf21 cells under serum free conditions. Cells were infected in log phase, 1×10^6 cells/ml, at a multiplicity of infection of ˜5. Cells were harvested by centrifugation at 10,000×g for 15 minutes after 72 hours of infection with viruses. The insect cell pellet from 2 liters of culture was resuspended in 50 ml lysis buffer (20 mM Tris-HCl, 50 mM NaCl, 50 mM NaF, 30 mM Na PPi, 0.25 M sucrose, 10 mM ZnCl2, 2 mM DTT, 0.4 mg/ml digitonin) and subjected to two cycles of freeze-thaw lysis in a dry-ice ethanol bath. Insoluble material was removed by centrifugation at 10,000×g and the supernatant was fractionated with use of polyethylene glycol (PEG). The protein fraction precipitating between 2.5 and 6% PEG was used for further purification using a Blue-Sepharose step (Zhou et al, J. Clin. Invest. 108, 1167-1174, 2001).
# The total in vitro AMPK activation assay volume is 50 μl in a 96-well plate. The reaction mixture contained 100 μM ATP (0.5 μCi ^33P-ATP per reaction), and 50 μM SAMS (HMRSAMSGLHLVKRR) in a buffer (20 mM HEPES, pH 7.0, 5 mM MgCl2, 0.01% Brij35). The reaction was initiated with addition of the enzyme. After 30-minute incubation at 30° C., the reaction was stopped by addition of 80 μl 1% H3PO4. Aliquots (100 μl) were transferred to 96-well MultiScreen plates (MAPHNOB50; Millipore Corp., Bedford, Mass., USA). The plate was washed three times with 1% H3PO4 followed by detection in a Top-count. The counts per minute from the basal activity (the reaction without activator) was subtracted from each well and the data were expressed as % maximum AMP activation followed by EC50 calculation.
row,SMILES,EC50 [µM]
1,"CCOC(=O)CNP(=O)(NCC(=O)OCC)c1cc(Oc2nc3cc(-c4ccc5c(ccn5C)c4)c(Cl)cc3[nH]2)ccc1C [Example 27, {[6-Chloro-5-(1-methyl-1H-indol-5-yl)-1-H-benzimidazol-2-yl]oxo}-4-methylphen-3-ylphosphono-bis-2-amino-ethanoic acid ethyl ester]",< 10
2,"Cc1ccc(Oc2nc3cc(-c4ccc(-c5ccccc5)cc4)c(Cl)cc3[nH]2)cc1[P@@]1(=O)OCC[C@@H](c2ccncc2)O1 (relative stereo) [Example 22, Cis-5-Biphenyl-4-yl-6-chloro-2-[4-methyl-3-(2-oxo-4-pyridin-4-yl-2lambda*5*-[1,3,2]dioxophosphinan-2-yl)-phenoxy]-1H-benzoimidazole]",< 10
3,"O=C(c1cccc(P(=O)(O)O)c1)c1nc2cc(-c3ccc(-c4ccccc4)cc3)c(Cl)cc2[nH]1 [Example 14, {3-[(5-biphenyl-4-yl-6-chloro-1H-benzimidazol-2-yl)carbonyl]phenyl}phosphonic acid]",< 10
4,"O=P(O)(O)c1cccc(Oc2nc3cc(-c4ccc(-c5ccccc5)cc4)c(Cl)cc3[nH]2)c1 [Example 2, ((5-(4-Biphenyl)-6-chloro-1H-benzimidazol-2-yl)oxo)phen-3-ylphosphonic acid]",< 10
5,"O=P(O)(O)c1cccc(C(F)(F)c2nc3cc(-c4ccc(-c5ccccc5)cc4)c(Cl)cc3[nH]2)c1 [Example 15, {3-[(5-biphenyl-4-yl-6-chloro-1H-benzimidazol-2-yl)(difluoro)methyl]phenyl}phosphonic acid]",< 10
6,"Cc1ccc(Cc2nc3cc(-c4ccc(-c5ccccc5)cc4)c(Cl)cc3[nH]2)cc1P(=O)(O)O [Example 11, {5-[(5-biphenyl-4-yl-6-chloro-1H-benzimidazol-2-yl)methyl]-2-methylphenyl}phosphonic acid]",< 10
7,"O=P(O)(O)c1cccc(Oc2nc3cc(-c4ccc(-c5ccccc5)cc4)c(F)cc3[nH]2)c1 [Example 13, {3-[(5-biphenyl-4-yl-6-fluoro-1H-benzimidazol-2-yl)oxy]phenyl}phosphonic acid]",< 10
8,"CCOC(=O)CNP(=O)(NCC(=O)OCC)c1cc(Oc2nc3cc(-c4ccc(C5CCCCC5)cc4)c(Cl)cc3[nH]2)ccc1C [Example 28, {[6-Chloro-5-(4-cyclohexylphenyl)-1H-benzoimidazol-2-yl]oxo}-4-methylphen-3-ylphosphono-bis-2-amino-ethanoic acid ethyl ester]",< 10
9,"CP(=O)(O)c1cccc(Oc2nc3cc(-c4ccc(-c5ccccc5)cc4)c(Cl)cc3[nH]2)c1 [Example 18, [3-(5-Biphenyl-4-yl-6-chloro-1H-benzoimidazol-2-yloxy)-phenyl]-methyl-phosphinic acid]",< 10
10,"Cc1ccc(Oc2nc3cc(-c4ccc(N5CCOCC5)cc4)c(Cl)cc3[nH]2)cc1P(=O)(O)O [Example 4, {5-[6-Chloro-5-(4-morpholin-4-yl-phenyl)-1H-benzoimidazol-2-yloxy]-2-methylphenyl}-phosphonic acid]",< 10
11,"O=P1(c2cccc(Oc3nc4cc(-c5ccc(-c6ccccc6)cc5)c(Cl)cc4[nH]3)c2)OCCC(c2ccncc2)O1 [Example 26, Cis-5-Biphenyl-4-yl-6-chloro-2-[3-((S)-2-oxo-4-pyridin-4-yl-2lambda*5*-[1,3,2]dioxophosphinan-2-yl)-phenoxy]-1H-benzoimidazole]",< 10
12,"Cc1ccc(Oc2nc3cc(C#Cc4ccccc4)c(Cl)cc3[nH]2)cc1P(=O)(O)O [Example 3, ((6-Chloro-5-phenylethynyl-1H-benzimidazol-2-yl)oxo)-4-methylphen-3-ylphosphonic acid]",< 10
13,"Cc1ccc(Oc2nc3cc(-c4ccc(N5CCCC5)cc4)c(Cl)cc3[nH]2)cc1P(=O)(O)O [Example 6, {5-[6-Chloro-5-(4-pyrrolidin-1-yl-phenyl)-1H-benzoimidazol-2-yloxy]-2-methyl-phenyl}phosphonic acid]",< 10
14,"O=[P@@]1(c2cccc(Oc3nc4cc(-c5ccc(-c6ccccc6)cc5)c(Cl)cc4[nH]3)c2)OCC[C@@H](c2ccncc2)O1 [Example 25, Trans-5-Biphenyl-4-yl-6-chloro-2-trans-[3-((S)-2-oxo-4-pyridin-4-yl-2lambda*5*-[1,3,2]dioxophosphinan-2-yl)-phenoxy]-1H-benzoimidazole]",< 10
15,"Cc1ccc(Oc2nc3cc(-c4ccc(-c5ccccc5)cc4)c(Cl)cc3[nH]2)cc1[P@@]1(=O)OCC[C@H](c2cccc(Cl)c2)O1 (relative stereo) [Example 19, Trans-5-Biphenyl-4-yl-6-chloro-2-[3-[4-(3-chloro-phenyl)-2-oxo-2-lambda*5*-[1,3,2]dioxaphosphinan-2-yl]-4-methyl-phenoxy]-1H-benzoimidazole]",< 10
16,"Cc1ccc(Oc2nc3cc(-c4ccc5c(ccn5C)c4)c(Cl)cc3[nH]2)cc1P(=O)(O)O [Example 9, 5-(5-chloro-6-(1-methyl-1H-indol-5-yl)-1H-benzo[d]imidazol-2-yloxy)-2-methylphenylphosphonic acid]",< 10
17,"O=[P@@]1(c2cccc(Oc3nc4cc(-c5ccc(-c6ccccc6)cc5)c(Cl)cc4[nH]3)c2)OCC[C@@H](c2cccc(Cl)c2)O1 (relative stereo) [Example 23, Trans-5-Biphenyl-4-yl-6-chloro-2-[3-4-(3-chloro-phenyl)-2-oxo-2-lambda*5*-[1,3,2]dioxaphosphinan-2-ylphenoxy]-1H-benzoimidazole]",< 10
18,"Cc1ccc(Oc2nc3cc(-c4ccc(-c5ccccc5)cc4)c(Cl)cc3[nH]2)cc1P(=O)(O)O [Example 1, ((5-(4-Biphenyl)-6-chloro-1H-benzimidazol-2-yl)oxo)-4-methylphen-3-ylphosphonic acid]",< 10
19,"O=P1(c2cccc(Oc3nc4cc(-c5ccc(-c6ccccc6)cc5)c(Cl)cc4[nH]3)c2)OCCC(c2cccc(Cl)c2)O1 (stereo not drawn) [Example 24, Cis-5-Biphenyl-4-yl-6-chloro-2-[3-4-(3-chloro-phenyl)-2-oxo-2-lambda*5*-[1,3,2]dioxaphosphinan-2-ylphenoxy]-1H-benzoimidazole]",< 10
20,"COc1ccc(C#Cc2cc3nc(Oc4ccc(C)c(P(=O)(O)O)c4)[nH]c3cc2Cl)cc1 [Example 10, 5-(5-chloro-6-(2-(4-methoxyphenyl)ethynyl)-1H-benzo[d]imidazol-2-yloxy)-2-methylphenylphosphonic acid]",< 10
21,"Cc1ccc(Oc2nc3cc(-c4ccc(C5CCCCC5)cc4)c(Cl)cc3[nH]2)cc1P(=O)(O)O [Example 5, {5-[6-Chloro-5-(4-cyclohexyl-phenyl)-1H-benzoimidazol-2-yloxy]-2-methylphenyl}phosphonic acid]",< 10
22,"O=P(O)(O)c1cncc(Oc2nc3cc(-c4ccc(-c5ccccc5)cc4)c(Cl)cc3[nH]2)c1 [Example 12, [5-(5-Biphenyl-4-yl-6-chloro-1H-benzoimidazol-2-yloxy)-pyridin-3-yl]-phoshponic acid]",< 10
23,"Cc1ccc(Oc2nc3cc(-c4ccc(-c5ccccc5)cc4)c(Cl)cc3[nH]2)cc1[P@@]1(=O)OCC[C@H](c2ccncc2)O1 (relative stereo) [Example 21, Trans-5-Biphenyl-4-yl-6-chloro-2-[4-methyl-3-(2-oxo-4-pyridin-4-yl-2lambda*5*-[1,3,2]dioxophosphinan-2-yl)-phenoxy]-1H-benzoimidazole]",< 10
24,"O=P(O)(O)c1cccc(Oc2nc3cc(-c4ccc(N5CCOCC5)cc4)c(Cl)cc3[nH]2)c1 [Example 7, {3-[6-Chloro-5-(4-morpholin-4-yl-phenyl)-1H-benzoimidazol-2-yloxy]phenyl}phosphonic acid]",< 10
25,"Cn1ccc2cc(-c3cc4nc(Oc5cccc(P(=O)(O)O)c5)[nH]c4cc3Cl)ccc21 [Example 16, (3-{[6-chloro-5-(1-methyl-1H-indol-5-yl)-1H-benzimidazol-2-yl]oxy}phenyl)phosphonic acid]",< 10
26,"Cc1ccc(Oc2nc3cc(-c4ccc(-c5ccccc5)cc4)c(Cl)cc3[nH]2)cc1[P@@]1(=O)OCC[C@@H](c2cccc(Cl)c2)O1 (relative stereo) [Example 20, Cis-5-Biphenyl-4-yl-6-chloro-2-[3-[4-(3-chloro-phenyl)-2-oxo-2-lambda*5*-[1,3,2]dioxaphosphinan-2-yl]4-methyl-phenoxy]-1H-benzoimidazole]",< 10

# Source: patent publication US8410284B2, “Cyclic benzimidazole derivatives useful as anti-diabetic agents” (Merck Sharp & Dohme Corp, priority 2008, dated 2013)
